Experimental data from patent publication US8450266B2 (Ipsen Pharma S.A.S., priority 2008, dated 2013).
HELM strings list residues between dots; [ac] is acetyl, [am] amide, other brackets name non-standard units. [ ]: non-standard residue; d: D form. The star is where a group is joined. Decanoyl = CCCCCCCCCC(=O)*; Ac6c = NC1(C(=O)O)CCCCC1; Orn = NCCC[C@H](N)C(=O)O; Hexanoyl = CCCCCC(=O)*

Experiment: general procedure: Fmoc solid-phase peptide synthesis; Pre-loaded Fmoc-Gln(Trt)-Wang resin (0.59 mmole/g; Novabiochem); Rink amide MBHA resin for amides; HBTU/DIPEA
Details: whole synthesis
[1] = analytical HPLC, 250×4.6 mm C18 column (Phenomenex), 2-80% acetonitrile (0.1% TFA) over 30 minutes, scale of the general procedure 0.1 mmole
[2] = analytical HPLC, 250×4.6 mm C18 column (Phenomenex), 2-80% acetonitrile (0.1% TFA) over 30 minutes, scale of the general procedure 0.1 mmole, run 1
[3] = analytical HPLC, 250×4.6 mm C18 column (Phenomenex), 2-80% acetonitrile (0.1% TFA) over 30 minutes, scale of the general procedure 0.1 mmole, run 2
[4] = scale of the general procedure 0.1 mmole

| Substance | final HPLC purity [1] [%] | further results |
| --- | --- | --- |
| [Ac-A6c^7, Cys(Psu)^31]hGIP(7-42)-OH | 99.90 |  |
| (Ac-A6c^7, 2Nal^31)hGIP(7-42)-OH | 99.10 |  |
| [Ac-A6c^7, Cys(Psu)^37]hGIP(7-42)-OH | 98.40 |  |
| (Ac-A6c^7, Cys(Psu)^31]hGIP(7-34)-NH2 | 99.90 |  |
| [Ac-A6c^7, Cys(Psu)^33]hGIP(7-42)-OH | 99.90 |  |
| [A6c^7, Orn^34(N-C(O)-(CH2)8-CH3)]hGIP(7-42)-OH | 99.90 |  |
| [Ac-A6c^7, Cys(Psu)^36]hGIP(7-42)-OH | 99.90 |  |
| (Ac-Phe^6, A6c^7)hGIP(6-30)-NH2 | 99.90 |  |
| [Ac-A6c^7, Cys(Psu)^40]hGIP(7-42)-OH |  | final HPLC purity [2]: 95.2%; final HPLC purity [3]: 95.20%; isolated yield [4]: 1% |
| [Ac-A6c^7, Cys(Psu)^34]hGIP(7-42)-OH | 99.90 |  |
| Hexanoyl-[Ac6c]SDYSIAMDKIHQQDFVNWLLAQK[Orn](Hexanoyl)KKNDWKHNITQ-OH | 95.70 |  |
| [Aib^2, A5c^11, Nle^14, Lys^43(N-C(O)-(CH2)10-CH3)]hGIP(2-43)-OH | 99.9 |  |
| [Ac-Asp^9, Cys(Psu)^33]hGIP(9-42)-OH | 99.90 |  |
| [Ac-A6c^7, Cys(Psu)^31]hGIP(7-31)-NH2 | 96.40 |  |
| [Ac-A6c^7, Cys(Psu)^35]hGIP(7-42)-OH | 99.90 |  |
| (Ac-4Hyp^3, A6c^7)hGIP(3-42)-OH | 99.90 |  |
| (A5c^7, Nle^14)hGIP(6-30)-NH2 | 96.83 |  |
| PEPTIDE1{[ac].[A6c].S.D.Y.S.I.A.M.D.K.I.H.Q.Q.D.F.V.N.W.L.L.A.Q.K.G.K.K.N.D.W.K.H.N.I.T.Q}$$$$V2.0 | 96.70 |  |
| [Ac-Phe^6, A6c^7, Cys(Psu)^31]hGIP(6-42)-OH | 96.40 |  |
| [Ac-A6c^7, Cys(Psu)^38]hGIP(7-42)-OH | 99.90 |  |
| [A6c^7, Cys(Hsu)^31]hGIP(7-42)-OH | 95.80 |  |
| Ac-[Ac6c]SDYSIAMDKIHQQDFVNWLLAQKGKK[Orn](Decanoyl)DWKHNITQ-OH | 95.50 |  |
| [A6c^7, Cys(Psu)^31]hGIP(6-42)-OH | 95.10 |  |
| H-[Ac6c]SDYSIAMDKIHQQDFVNWLLAQK[Orn](Decanoyl)KKNDWKHNITQ-OH | 99.90 |  |

| Substance | final HPLC purity [1] [%] | further results |
| --- | --- | --- |
| [CH3-(CH2)4-C(O)-Ser^8, Cys(Psu)^31]hGIP(8-42)-OH | 96.40 |  |
| (4Hppa^2, A6c^11)hGIP(2-42)-OH | 99.90 |  |
| (4Hppa^2, 4Hyp^3, A6c^7)hGIP(2-42)-OH | 99.90 |  |
| [CH3-(CH2)8-C(O)-A6c^7, Orn^34(N-C(O)-(CH2)8-CH3)]hGIP(7-42)-OH | 95.30 |  |
| [Chc-Ser^8, Cys(Psu)^31]hGIP(8-42)-OH | 96.90 |  |
| Ac-[Ac6c]SDYSIAMDKIHQQDFVNWLLAQK[Orn](Decanoyl)KKNDWKHNITQ-OH | 96.70 |  |
| Decanoyl-[Ac6c]SDYSIAMDKIHQQDFVNWLLAQK[Orn](Decanoyl)KKNDWKHNITQ-OH | 95.00 |  |
| [Ac-A6c^7, Cys(Psu)^32]hGIP(7-42)-OH | 99.90 |  |
| [Ac-A6c^7, Orn^31(N-C(O)-(CH2)12-CH3)]hGIP(7-42)-OH | 95.20 | isolated mass: 3 mg; crude HPLC purity [1]: 37%; isolated yield [4]: 0.6% |
| (Aib^11, Nle^14)hGIP(6-30)-NH2 | 97.20 |  |
| H-SDYSIAMDKIHQQDFVNWLLAQK[Orn](Decanoyl)KKNDWKHNITQ-OH | 99.90 |  |
| [Ac-A6c^7, Cys(Hsu)^31]hGIP(7-42)-OH |  | isolated mass: 28.1 mg; final HPLC purity [2]: 95.4%; final HPLC purity [3]: 95.40%; isolated yield [4]: 6.1% |
| (Ac-A6c^7, Gln^43)hGIP(7-43)-OH | 99.90 |  |
| [Ac-A6c^7, Cys(Psu)^39]hGIP(7-42)-OH | 99.90 |  |
| (4Hppa^2, Aib^13)hGIP(2-42)-OH) | 99.90 |  |
| [A6c^7, Cys(Psu)^31]hGIP(6-31)-NH2 | 98.20 |  |
| H-[Ac6c]SDYSIAMDKIHQQDFVNWLLAQK[Orn](Hexanoyl)KKNDWKHNITQ-OH | 99.90 |  |
| [Ac-Phe^6, A6c^7, Cys(Psu)^31]hGIP(6-31)-NH2 | 96.30 |  |
| (Ac-A6c^7, D-2Nal^31)hGIP(7-42)-OH | 99.90 |  |
| Ac-[Ac6c]SDYSIAMDKIHQQDFVNWLLAQK[Orn](Hexanoyl)KKNDWKHNITQ-OH | 96.20 |  |
| (4Hppa^2, Pro^3, Nle^14)hGIP(2-42)-OH | 99.90 |  |
| (A6c^7, Nle^14)hGIP(6-30)-NH2 | 99.90 |  |
| (4Hppa^2, A6c^14)hGIP(2-42)-OH | 99.90 |  |
